According to patent US12662493B2, “Non-immunosuppressive FK506 analogs and use thereof” (The Johns Hopkins University, priority 2019, dated 2026):
At least one compound was matched to its structure with a doubt left.

Tests used:
[1] = test system: calcineurin (NFAT reporter); assay: PMA/ionomycin-activated NFAT-luciferase reporter in Jurkat T cells; format: cell-based; conditions: concentrations up to 10 μM
[2] = test system: BMP signaling pathway (ID1 gene promoter); assay: BMP-response-element (BRE) luciferase pathway reporter in Jurkat T cells; format: cell-based
Procedure: Jurkat (E6.1, ATCC) cells were cultured in RPMI with 10% FBS and 1.5% PennStrep. Jurkat cells (1×10^6) were transfected with 10 μg of BRE-Luciferase (kindly provided by Martine Roussel & Peter ten Dijke) or NFAT-Luciferase cDNA (Promega) by electroporation (BioRad, square-wave, 250V, […]) in 400 μL serum/antibiotic free RPMI with 0.5% DMSO. Thirty minutes after transfection, cells were transferred to complete RPMI and rested overnight. Before plating, cells were re-suspended in fresh media and diluted to 0.5×10^6 cells/mL. HEK293T cells were cultured in DMEM with 10% FBS, 1% PennStrep, and 500 μg/mL G418 (Corning). Cells were transfected using SuperFect reagent and supplied transfection protocols. HUVEC cells were cultured in Lonza Endothelial Cell Growth Medium (EGM-2) and used between passages 3 and 7. All cells were cultured at 37° C. with 5% CO2.
Jurkat T cells transfected with BRE-Luc were split into a 96-well plate (80 μL/well of 0.5×10^6 cells/mL)) and treated with previously stated compounds/proteins (20 μL of 5X stock in RPMI, 0.5% DMSO) for 18 h. rBMP-4 and […] (R&D) were used as positive and negative controls, respectively. Plates were centrifuged at 3000 rpm for 10 min, then carefully aspirated. Cells were re-suspended in 100 μL lysis buffer (per well) and placed on a plate-shaker for 30 min. An aliquot of 80 μL of lysate was transferred to a white-walled 96-well plate, and luminescence was recorded 2 seconds after automated injection of luciferase substrate. Luminescence values were background subtracted (lysis buffer+substrate) and normalized to DMSO control values.
FKBP12KO Jurkat T cells transfected with FKBP12-SNAP plasmid were selected with 1200 μg/mL G418 for seven days before use in BRE-Luc assays.

[3] = test system: BMP type 1 receptor (SMAD1/5 phosphorylation); assay: SMAD1/5 phosphorylation Western blot in Jurkat cells; format: cell-based
[4] = test system: full-thickness excisional wounds; conditions: cited from earlier work

With `C=CC[C@@H]1/C=C(\C)C[C@H](C)C[C@H](OC)[C@H]2O[C@@](O)(C(=O)C(=O)N3CCCC[C@H]3C(=O)O[C@H](/C(C)=C/[C@@H]3CC[C@@H](O)[C@H](OC)C3)[C@H](C)[C@@H](O)CC1=O)[C@H](C)C[C@@H]2OC` [FK506] the “inhibition of NFAT-luciferase reporter” value [1] was “potent inhibition”, the “BRE reporter sensitivity after reconstitution of FKBP12” value ([2]; FKBP12KO Jurkat cells expressing FKBP12-SNAP) was “restored” and the “BRE reporter response in FKBP12 knockout cells” value ([2]; FKBP12 knockout Jurkat cells (not FKBP51 or FKBP52 knockout)) was “lost sensitivity”. For the same compound, the “BRE reporter (ID-1 promoter luciferase) activation” value ([2]; Jurkat T cells, 18 h, normalized to DMSO) was “dose-dependent activation of the reporter”, the SMAD1/5 phosphorylation [3] was “induced SMAD1/5 phosphorylation in a dose-dependent manner” and the “healing, low-dose FK506 alone” value ([4]; 0.1 mg/kg, compared to saline control) was “slightly faster healing”. For the same compound, the “healing, standard dose of FK506” value ([4]; 1 mg/kg) was “delayed healing time”.
